For the test, the target named is Rab6 (yeast two-hybrid bait) (Arabidopsis) (UniProt O80501). The test can be described thus: two-hybrid; direct assay, Matchmaker LexA system, bait in pGilda, prey in pB42AD-GW, co-transformed into yeast strain EGY48; β-galactosidase assay, plates after 3 days at 28 °C.

Protein sequences, listed by entry. Tags and fused reporters are not part of them.
UniProt O80501: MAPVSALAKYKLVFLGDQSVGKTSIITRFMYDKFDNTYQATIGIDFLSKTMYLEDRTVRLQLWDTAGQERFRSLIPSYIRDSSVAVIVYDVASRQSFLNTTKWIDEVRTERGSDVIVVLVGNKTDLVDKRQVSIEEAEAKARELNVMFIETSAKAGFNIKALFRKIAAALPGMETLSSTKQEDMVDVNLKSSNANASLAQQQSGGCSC

Results are given in words; binding and its absence hold for the method and conditions named. Some results given as binding are weak or reduced against the parent protein; the word gives no strength.

B1: N-terminal cytosolic domain of YIP4A (aa 1-140) (domain or fragment, UniProt O64614 1-140)
chain: MSQGDTVPLHPSSQSDIDEIENLINESVQSGPGTVLAARPPSPTRPSIPVSSSSSSSPFMQSNLPPLHPSSSAQKVTHVPVPPPLPAVSNSSNFQGASAFGSPPNTLTEPVWDTVKRDLSRIVSNLKLVVFPNPYREDPG
For B1, the binding entry is reported as “binds”.

B2: N-terminal cytosolic domain of YIP4B (aa 1-143) (domain or fragment, UniProt Q93VH1 1-143)
chain: MSHNDTIPLYQSSQSDIDEIENMMNDSFQSGPGTVLPARPPSPIRPSIPVSSSPFVQSNLPPLPPSSSSSTQKVMPVPAPPPLPSAGNEGNKSIGGSGFGSPPNTLTEPVWDTVKRDLSRIVSNLKLVVFPNPYREDPGKALR
In the case of B2, the binding entry is “binds”.

(Values after publication PMC6294250.)
